Measurements: patent US20070148201A1
No constants are given. Whether binding was seen depends on the method and setting.

B1: BBP mutein Fer-P4 (designed binder)
chain: DVYHDGACPEVKPVDNFDWSQYHGKWWEVAKYPSKGGEKGKCGWAEYTPEGKSVKVSRYDVILSSEPFMEGTAYPVGDSKIGKIYHSRTKKGETKKTVFNVLSTDNKNYIIGYSCGYCECRKGHADHVWVLSRSMVLTGEAKTAVENYLIGSPVVDSQKLVYSDFSEAACKVNN
B2: BBP mutein Fer-N22 (designed binder)
chain: DVYHDGACPEVKPVDNFDWSQYHGKWWEVAKYPNGGESPGKCGWAEYTPEGKSVKVSNYHVIKKRERFIEGTAYPVGDSKIGKICHSLTWSGLTKENVFNVLSTDNKNYIIGYYCKYKERKKGHGDFVWVLSRSMVLTGEAKTAVENYLIGSPVVDSQKLVYSDFSEAACKVNN
B3: BBP mutein Fer-I21 (designed binder)
chain: DVYHDGACPEVKPVDNFDWSQYHGKWWEVAKYPNQKEKWGKCGWAEYTPEGKSVKVSNYHVIKRPERFIEGTAYPVGDSKIGKIYHSLTRLGKTKENVFNVLSTDNKNYIIGYYCLYPEGWKGHKDFVWVLSRSMVLTGEAKTAVENYLIGSPVVDSQKLVYSDFSEAACKVNN
B4: BBP mutein Fer-N21 (designed binder)
chain: DVYHDGACPEVKPVDNFDWSQYHGKWWEVAKYPSNRGSKGKCGWAEYTPEGKSVKVSRYDVIPRLEAFMEGTAYPVGDSKIGKIYHSRTSKGKTKKTVFNVLSTDNKNYIIGYSCIYNERYKGHYDHVWVLSRSMVLTGEAKTAVENYLIGSPVVDSQKLVYSDFSEAACKVNN
B5: BBP mutein Fer-O20 (designed binder)
chain: DVYHDGACPEVKPVDNFDWSQYHGKWWEVAKCPSGKGRAGKCGWAEFTPEGKSVKVSRYDVIPAPELFMEGTAYPVGDPKIGKIYHSRTNKGLTKKTVFNVLSTDNKNYIIGYSCKYGEDQKGHKDHVWVLSRSMVLTGEAKTAVENYLIGSPVVDSQKLVYSDFSEAACKVNN

What follows are binders tested against transferrin (assay: ELISA, transferrin coated on plate, anti-T7-HRP detection).

Binder	binding
B1	no binding (tested: dilution series starting from 1000 nM)
B2	no binding (tested: dilution series starting from 1000 nM)
B3	no binding (tested: dilution series starting from 1000 nM)
B4	no binding (tested: dilution series starting from 1000 nM)
B5	no binding (tested: dilution series starting from 1000 nM)

The binders below were run against transferrin (assay: ELISA: transferrin coated on the plate as control, BBP mutein titrated 0-1000 nM, detected with anti-T7 antibody-HRP, fluorescence (Example 12)).

binding	Binder
no binding (tested: 1000 nM)	B1
